Source: patent US20030170326A1, “Bioavailability enchancing activity of Zingiber officinale Linn and its extracts/fractions thereof” (COUNCIL OF SCIENTIFIC AND INDUSTRIAL RESEARCH, priority 2001, published 2003)

Test: Bioavailability enhancement of a drug/nutraceutical/herbal product given with bioenhancer (BE) to fasted rats; plasma drug level by HPLC, 0-24 hrs
Settings: drug + BE from Zingiber officinale (extract 30 mg/kg or fraction No 1 15 mg/kg)

CCn1cc(C(=O)O)c(=O)c2cc(F)c(N3CCN(C)CC3)cc21 [P-floxacin, Pefloxacin]
% Enhancement in bioavailability, BE from Zingiber officinale: 53%
